Measured values from patent US11945790B2 (ImmunoMolecular Therapeutics, Inc., priority 2020, dated 2024).
Some of these results come from one statement about several compounds together.

Amino acid sequences for entries named in this document (tags omitted). Residues count along the entry.
UniProt P01920, 33-261 limits assumed: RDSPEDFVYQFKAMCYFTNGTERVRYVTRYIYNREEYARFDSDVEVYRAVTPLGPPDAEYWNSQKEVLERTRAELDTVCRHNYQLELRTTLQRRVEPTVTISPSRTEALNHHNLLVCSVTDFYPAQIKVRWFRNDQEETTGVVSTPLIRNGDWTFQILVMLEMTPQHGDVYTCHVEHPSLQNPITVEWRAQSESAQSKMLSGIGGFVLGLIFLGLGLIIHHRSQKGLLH

Target: HLA-DQ2 (Homo sapiens, UniProt P01909+P01920)
Experiment: Inhibition of IL-2 secretion by TCR transductants stimulated by α-gliadin peptides presented by HLA-DQ2 expressing K562 cells (ELISA)
Type: cell-based
Conditions: inhibition of IL-2 secretion at 200 uM; tested as trans racemate unless otherwise noted; lines naming several Examples = stereoisomer mixture of those Examples
Procedure: Three commercially available analogues of the DQ2 binding molecules of the invention were tested for their ability to inhibit stimulation of T cell receptor (TCR) transductants in the presence of HLA-DQ2 expressing cells presenting known α-gliadin epitopes.
Using a previously published in vitro assay (Ostrov D, et al. Methyldopa blocks MHC class II binding to disease specific antigens in autoimmune diabetes. J Clin Invest. 2018:128 (5)) the ability of these DQ2 binding analogues to inhibit interleukin-2 (IL-2) secretion by TCR transductants stimulated by α-gliadin peptides presented by HLA-DQ2 was determined. Individual TCR transductants (recognizing a I-gliadin or a II-gliadin) were cultured with a gliadin peptide plus the small molecule analogues in the presence of HLA-DQ2 expressing K562 cells serving as antigen presenting cells. TCR transductants cultured with no gliadin peptide served as the negative control, and incubation with an anti-CD3 antibody (eBioscience; clone 2C11) served as a positive control for the TCR transductant. Secreted IL-2 in the culture supernatant was measured using a highly sensitive enzyme-linked immunosorbent assay (ELISA). […] Assays for effects on cell viability and for specificity, assayed in the absence of gliadin peptide or in the presence of a stimulating anti-CD3 antibody, were performed. Unless otherwise noted, the stereochemistry shown below represents the relative configuration. Further, unless otherwise noted, compounds were tested as the trans racemate.

% Inh at 200 uM, A (A=≥75%):
O=C(CSC1CCCC1)N1CCN(C(=O)C2CC2c2ccccc2)CC1 (racemic) [Example 10, 2-(Cyclopentylthio)-1-(4-((rac)-2-phenylcyclopropanecarbonyl)piperazin-1-yl)ethanone]
O=C(CSC1CCCC1)N1CCN(C(=O)[C@H]2CC2c2ccc3c(c2)OCO3)CC1 (single isomer, unassigned) [Example 1]
O=C(CSC1CCCC1)N1CCN(C(=O)[C@@H]2C[C@H]2c2ccc3c(c2)OCO3)CC1 (single isomer, unassigned) [Example 2]
O=C(CSC1CCCC1)N1CCN(C(=O)[C@@H]2C[C@@H]2c2ccc3c(c2)OCO3)CC1 (single isomer, unassigned) [Example 3]
O=C(CSC1CCCC1)N1CCN(C(=O)[C@H]2C[C@H]2c2ccc3c(c2)OCO3)CC1 (single isomer, unassigned) [Example 4]
O=C(CSC1CCCC1)N1CCN(C(=O)[C@H]2C[C@H]2c2ccccc2)CC1 (single isomer, unassigned) [Example 11, (2-(Cyclopentylthio)-1-(4-((1,2-cis)rel-2-phenylcyclopropanecarbonyl)-piperazin1-yl)ethanone)]
O=C(CSC1CCCC1)N1CCN(C(=O)[C@@H]2C[C@H]2c2ccccc2)CC1 [Example 12, 2-(Cyclopentylthio)-1-(4-((1R,2R)-2-phenylcyclopropane-carbonyl)piperazin-1-yl)ethanone]
